The chains behind the UniProt entries cited, without tags or fusion partners.
UniProt Q9VUV9: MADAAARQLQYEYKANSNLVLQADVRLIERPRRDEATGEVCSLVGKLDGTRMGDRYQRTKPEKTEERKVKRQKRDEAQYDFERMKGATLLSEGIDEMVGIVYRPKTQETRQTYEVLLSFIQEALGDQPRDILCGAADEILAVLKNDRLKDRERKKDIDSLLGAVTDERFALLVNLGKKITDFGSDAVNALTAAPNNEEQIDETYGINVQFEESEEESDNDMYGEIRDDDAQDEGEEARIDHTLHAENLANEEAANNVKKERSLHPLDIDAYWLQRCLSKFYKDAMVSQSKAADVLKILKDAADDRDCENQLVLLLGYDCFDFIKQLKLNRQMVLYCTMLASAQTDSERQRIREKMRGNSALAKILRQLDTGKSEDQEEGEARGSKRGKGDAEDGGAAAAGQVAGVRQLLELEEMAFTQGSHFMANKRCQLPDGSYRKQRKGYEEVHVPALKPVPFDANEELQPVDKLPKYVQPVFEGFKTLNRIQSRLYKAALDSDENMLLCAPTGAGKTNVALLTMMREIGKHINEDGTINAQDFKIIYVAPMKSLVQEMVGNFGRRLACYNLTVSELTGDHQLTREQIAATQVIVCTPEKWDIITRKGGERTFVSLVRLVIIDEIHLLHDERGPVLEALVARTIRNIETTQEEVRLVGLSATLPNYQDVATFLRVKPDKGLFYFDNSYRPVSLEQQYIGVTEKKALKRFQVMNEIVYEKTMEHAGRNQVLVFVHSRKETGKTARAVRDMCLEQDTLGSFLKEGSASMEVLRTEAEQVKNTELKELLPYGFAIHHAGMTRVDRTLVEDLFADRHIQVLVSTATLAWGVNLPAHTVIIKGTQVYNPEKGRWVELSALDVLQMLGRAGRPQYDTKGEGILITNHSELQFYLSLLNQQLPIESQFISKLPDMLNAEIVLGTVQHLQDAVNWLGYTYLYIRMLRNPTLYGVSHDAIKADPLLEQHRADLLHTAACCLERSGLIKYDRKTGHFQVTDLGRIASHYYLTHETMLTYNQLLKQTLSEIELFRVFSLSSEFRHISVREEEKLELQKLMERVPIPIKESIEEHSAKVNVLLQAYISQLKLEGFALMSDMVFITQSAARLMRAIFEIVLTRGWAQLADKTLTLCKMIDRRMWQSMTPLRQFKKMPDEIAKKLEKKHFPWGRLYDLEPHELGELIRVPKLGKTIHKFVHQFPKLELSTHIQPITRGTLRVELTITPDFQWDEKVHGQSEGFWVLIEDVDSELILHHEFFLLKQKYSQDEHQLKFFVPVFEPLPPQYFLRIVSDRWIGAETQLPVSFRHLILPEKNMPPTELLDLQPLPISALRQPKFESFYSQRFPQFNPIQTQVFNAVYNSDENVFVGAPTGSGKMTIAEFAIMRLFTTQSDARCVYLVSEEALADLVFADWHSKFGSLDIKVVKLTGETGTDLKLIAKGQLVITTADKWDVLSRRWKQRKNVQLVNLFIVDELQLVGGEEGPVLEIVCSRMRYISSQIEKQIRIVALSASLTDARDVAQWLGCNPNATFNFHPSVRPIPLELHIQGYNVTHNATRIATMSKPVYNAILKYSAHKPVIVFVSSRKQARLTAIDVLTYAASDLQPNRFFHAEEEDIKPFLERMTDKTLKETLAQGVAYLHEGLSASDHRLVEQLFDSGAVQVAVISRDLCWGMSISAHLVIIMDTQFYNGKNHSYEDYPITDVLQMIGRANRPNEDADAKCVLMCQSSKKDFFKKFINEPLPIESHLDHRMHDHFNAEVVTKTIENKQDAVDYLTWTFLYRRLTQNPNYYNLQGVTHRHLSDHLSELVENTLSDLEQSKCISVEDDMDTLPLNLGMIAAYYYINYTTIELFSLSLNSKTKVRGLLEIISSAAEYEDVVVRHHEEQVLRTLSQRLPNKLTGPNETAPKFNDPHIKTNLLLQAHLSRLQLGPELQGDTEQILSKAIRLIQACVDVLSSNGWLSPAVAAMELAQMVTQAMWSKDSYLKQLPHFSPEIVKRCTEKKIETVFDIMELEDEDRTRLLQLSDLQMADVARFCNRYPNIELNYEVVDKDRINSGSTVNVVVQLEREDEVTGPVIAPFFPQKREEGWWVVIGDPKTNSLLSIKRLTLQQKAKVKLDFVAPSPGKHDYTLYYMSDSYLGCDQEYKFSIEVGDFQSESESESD
UniProt Q9VH07: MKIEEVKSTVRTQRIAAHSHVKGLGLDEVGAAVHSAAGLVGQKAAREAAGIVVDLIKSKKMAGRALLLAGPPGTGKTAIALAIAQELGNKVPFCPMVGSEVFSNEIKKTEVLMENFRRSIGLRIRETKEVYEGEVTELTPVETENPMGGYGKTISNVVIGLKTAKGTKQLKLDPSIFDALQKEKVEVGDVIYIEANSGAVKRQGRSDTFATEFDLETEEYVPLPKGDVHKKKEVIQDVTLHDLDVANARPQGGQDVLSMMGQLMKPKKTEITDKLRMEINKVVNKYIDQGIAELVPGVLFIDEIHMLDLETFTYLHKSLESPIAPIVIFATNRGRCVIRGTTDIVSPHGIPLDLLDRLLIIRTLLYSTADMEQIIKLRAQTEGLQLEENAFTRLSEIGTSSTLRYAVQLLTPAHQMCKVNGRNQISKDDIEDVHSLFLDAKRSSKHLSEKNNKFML
UniProt Q9VU02: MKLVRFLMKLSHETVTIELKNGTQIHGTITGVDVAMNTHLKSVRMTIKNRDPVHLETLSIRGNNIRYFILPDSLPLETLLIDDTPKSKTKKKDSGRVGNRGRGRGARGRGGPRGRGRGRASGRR

According to publication PMC7897482:

Columns and labels:
[1] = target: T1, SmD3::HA (transgenic UAS-SmD3::3xHA) (Drosophila melanogaster) (UniProt O44437); assay: affinity purification with mass spectrometry; SmD3::HA precipitated with an HA-specific antibody from lysates of wing imaginal discs (nub>mRFP, SmD3::HA), wild type or with ecd RNAi; LC-MS/MS; control: nub>mRFP discs
T1 sequence: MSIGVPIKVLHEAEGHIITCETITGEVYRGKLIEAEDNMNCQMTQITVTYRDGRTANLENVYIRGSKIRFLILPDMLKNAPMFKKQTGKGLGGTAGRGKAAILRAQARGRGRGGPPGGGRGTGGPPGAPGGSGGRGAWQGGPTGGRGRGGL

[2] = target: T2, Myc::Ecd^wt (Ecdysoneless, wild type) (Drosophila melanogaster) (UniProt Q9W032); assay: affinity purification with mass spectrometry; Myc::Ecd^wt or Myc::Ecd^Δ34 precipitated with an anti-Myc antibody from Drosophila S2 cell lysates; LC-MS/MS, four biological replicates; control: S2 cells not expressing Myc::Ecd^wt
T2 sequence: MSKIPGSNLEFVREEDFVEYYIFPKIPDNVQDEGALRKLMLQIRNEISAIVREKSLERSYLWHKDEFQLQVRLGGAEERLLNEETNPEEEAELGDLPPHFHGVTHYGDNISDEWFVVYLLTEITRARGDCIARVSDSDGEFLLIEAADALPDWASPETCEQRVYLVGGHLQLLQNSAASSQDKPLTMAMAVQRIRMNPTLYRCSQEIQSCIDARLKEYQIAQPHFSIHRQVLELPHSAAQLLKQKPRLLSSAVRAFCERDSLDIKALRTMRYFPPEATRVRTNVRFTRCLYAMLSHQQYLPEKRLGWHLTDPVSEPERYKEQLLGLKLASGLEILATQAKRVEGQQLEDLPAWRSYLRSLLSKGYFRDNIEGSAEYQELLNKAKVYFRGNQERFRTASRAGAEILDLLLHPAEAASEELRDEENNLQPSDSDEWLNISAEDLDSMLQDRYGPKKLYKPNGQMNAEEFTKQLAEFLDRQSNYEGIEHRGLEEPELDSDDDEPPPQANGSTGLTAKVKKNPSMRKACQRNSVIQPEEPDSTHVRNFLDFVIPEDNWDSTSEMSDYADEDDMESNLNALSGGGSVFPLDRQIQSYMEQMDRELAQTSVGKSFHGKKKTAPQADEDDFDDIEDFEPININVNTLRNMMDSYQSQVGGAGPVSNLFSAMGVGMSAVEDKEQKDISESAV

[3] = target: T3, Myc::Ecd^Δ34 (Drosophila melanogaster) (UniProt Q9W032); assay: as above
T3 sequence: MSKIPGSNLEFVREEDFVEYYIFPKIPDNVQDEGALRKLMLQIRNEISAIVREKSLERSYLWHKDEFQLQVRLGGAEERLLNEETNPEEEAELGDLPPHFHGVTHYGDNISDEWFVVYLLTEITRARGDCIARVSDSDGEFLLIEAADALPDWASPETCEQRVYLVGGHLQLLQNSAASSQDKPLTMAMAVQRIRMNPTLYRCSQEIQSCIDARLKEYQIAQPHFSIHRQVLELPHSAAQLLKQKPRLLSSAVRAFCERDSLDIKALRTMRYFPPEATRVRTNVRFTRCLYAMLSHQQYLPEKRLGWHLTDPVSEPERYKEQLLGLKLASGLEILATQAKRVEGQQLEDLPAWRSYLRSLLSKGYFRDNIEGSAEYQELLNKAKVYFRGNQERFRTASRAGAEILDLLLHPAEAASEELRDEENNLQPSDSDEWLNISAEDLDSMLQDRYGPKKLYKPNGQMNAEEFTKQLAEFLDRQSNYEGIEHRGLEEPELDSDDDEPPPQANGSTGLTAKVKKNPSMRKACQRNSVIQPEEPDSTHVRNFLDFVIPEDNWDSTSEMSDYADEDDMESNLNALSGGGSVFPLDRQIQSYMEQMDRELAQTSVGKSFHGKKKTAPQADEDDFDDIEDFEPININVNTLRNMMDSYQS

In the case of CG3436 (SNRNP40) (wing imaginal discs), the binding [1] is reported as “binds”.

In the case of “CG10333 (DDX23) (wing imaginal discs) (from UniProt Q9VJ74)”, the binding [1] is reported as “binds”.

“Drosophila TSSC4 ortholog, encoded by CG6674 (S2 cells)” was tested, and the binding [2] was “binds” and the binding [3] was “binds”.

With “I(3)72Ab (Brr2) (wing imaginal discs) (from UniProt Q9VUV9 1-2142)” the binding [1] was “binds”.

In the case of “Snu114 (wing imaginal discs) (from UniProt Q9VAX8)”, the binding [1] is reported as “binds”.

For “endogenous Pontin (S2 cells) (from UniProt Q9VH07 1-456)”, the binding [2] was “binds” and the binding [3] was “binds”.

“endogenous Prp8 (S2 cells) (from UniProt A1Z8U0 1-2396)” was tested, and the binding [2] was “binds” and the binding [3] was “binds”.

In the case of “endogenous Prp8 (wing imaginal discs) (from UniProt A1Z8U0 1-2396)”, the binding [1] is reported as “binds”.

“endogenous SmD1 (S2 cells) (from UniProt Q9VU02 1-124)” was tested, and the binding [2] was “binds”.

Results are given in words; binding and its absence hold for the method and conditions named. In cells and extracts the contact can be indirect. These calls come from enrichment with a bait or labelling near it, and not all partners need be listed. Tags and fused reporters may be left off the sequences shown.
